No constants are given. Whether binding was seen depends on the method and setting. Binding seen in cells or lysates may run through a third protein. Some results given as binding are weak or reduced against the parent protein; the word gives no strength. Where a sequence is shown, tags or fusion partners need not be part of it. Values belong to the binder of their own block, whether it stands above or below them.
How the values were obtained:
Assay in all cases: co-IP
FLAG-SREBP1a = target: T1, FLAG-SREBP1a (UniProt P36956)
T1 sequence: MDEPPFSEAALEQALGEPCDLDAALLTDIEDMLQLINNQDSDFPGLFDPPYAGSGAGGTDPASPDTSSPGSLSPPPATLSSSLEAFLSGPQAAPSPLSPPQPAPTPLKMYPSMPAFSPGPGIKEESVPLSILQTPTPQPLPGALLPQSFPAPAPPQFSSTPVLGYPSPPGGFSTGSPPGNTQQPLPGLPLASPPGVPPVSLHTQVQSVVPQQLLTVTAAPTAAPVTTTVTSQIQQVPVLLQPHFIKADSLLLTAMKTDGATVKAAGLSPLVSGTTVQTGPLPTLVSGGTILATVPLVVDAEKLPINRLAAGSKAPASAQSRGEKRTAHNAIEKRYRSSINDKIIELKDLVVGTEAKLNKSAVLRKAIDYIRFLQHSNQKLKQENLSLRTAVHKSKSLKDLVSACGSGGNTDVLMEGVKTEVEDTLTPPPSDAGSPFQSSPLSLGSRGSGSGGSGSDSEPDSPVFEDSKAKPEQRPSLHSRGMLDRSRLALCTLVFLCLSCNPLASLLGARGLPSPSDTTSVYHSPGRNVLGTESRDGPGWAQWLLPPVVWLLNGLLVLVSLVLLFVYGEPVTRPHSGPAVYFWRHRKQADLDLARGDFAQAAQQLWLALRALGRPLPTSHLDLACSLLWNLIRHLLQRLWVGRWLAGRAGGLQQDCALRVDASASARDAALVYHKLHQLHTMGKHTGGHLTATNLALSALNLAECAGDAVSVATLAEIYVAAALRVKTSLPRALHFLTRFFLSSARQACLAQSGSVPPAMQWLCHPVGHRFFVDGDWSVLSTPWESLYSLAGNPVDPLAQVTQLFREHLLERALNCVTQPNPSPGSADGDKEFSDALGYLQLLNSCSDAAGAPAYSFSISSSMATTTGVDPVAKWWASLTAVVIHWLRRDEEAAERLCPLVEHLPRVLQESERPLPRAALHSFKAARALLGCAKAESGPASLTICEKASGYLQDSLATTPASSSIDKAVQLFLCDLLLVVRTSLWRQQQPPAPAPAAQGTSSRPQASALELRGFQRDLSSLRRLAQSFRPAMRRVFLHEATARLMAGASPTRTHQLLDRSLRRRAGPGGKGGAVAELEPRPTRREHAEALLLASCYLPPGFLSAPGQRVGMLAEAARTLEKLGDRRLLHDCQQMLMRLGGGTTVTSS

FLAG-SREBP2 = target: T2, FLAG-SREBP2 (UniProt Q12772)
T2 sequence: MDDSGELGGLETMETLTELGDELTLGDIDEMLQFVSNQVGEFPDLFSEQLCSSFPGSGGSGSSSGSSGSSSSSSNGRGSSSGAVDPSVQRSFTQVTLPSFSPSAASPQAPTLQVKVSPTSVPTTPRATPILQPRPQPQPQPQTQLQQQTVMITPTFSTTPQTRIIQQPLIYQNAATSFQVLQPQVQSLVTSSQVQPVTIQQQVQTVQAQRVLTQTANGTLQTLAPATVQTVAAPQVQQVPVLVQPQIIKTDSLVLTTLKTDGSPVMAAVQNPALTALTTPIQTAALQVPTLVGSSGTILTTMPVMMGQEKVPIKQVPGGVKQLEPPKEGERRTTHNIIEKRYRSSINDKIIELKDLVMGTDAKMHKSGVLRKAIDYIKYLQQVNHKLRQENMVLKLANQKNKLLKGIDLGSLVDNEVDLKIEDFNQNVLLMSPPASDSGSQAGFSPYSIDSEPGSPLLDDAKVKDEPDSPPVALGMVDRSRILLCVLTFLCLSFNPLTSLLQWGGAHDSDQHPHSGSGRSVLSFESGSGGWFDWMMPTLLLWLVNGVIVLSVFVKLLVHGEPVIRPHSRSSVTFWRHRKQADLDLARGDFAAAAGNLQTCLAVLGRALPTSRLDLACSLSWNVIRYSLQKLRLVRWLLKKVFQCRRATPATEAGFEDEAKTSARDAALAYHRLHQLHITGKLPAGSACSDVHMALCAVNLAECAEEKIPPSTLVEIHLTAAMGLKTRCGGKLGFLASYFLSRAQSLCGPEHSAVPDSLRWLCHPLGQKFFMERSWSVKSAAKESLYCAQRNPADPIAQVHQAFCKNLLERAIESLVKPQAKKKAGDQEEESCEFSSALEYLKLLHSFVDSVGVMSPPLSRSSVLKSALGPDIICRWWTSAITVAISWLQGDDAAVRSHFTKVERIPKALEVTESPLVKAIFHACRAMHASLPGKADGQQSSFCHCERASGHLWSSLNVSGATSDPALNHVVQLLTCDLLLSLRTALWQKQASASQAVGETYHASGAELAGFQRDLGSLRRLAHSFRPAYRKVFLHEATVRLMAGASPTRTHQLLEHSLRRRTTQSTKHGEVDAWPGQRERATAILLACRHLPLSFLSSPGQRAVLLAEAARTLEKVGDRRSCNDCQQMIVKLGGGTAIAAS

[1] = target: T3, FLAG-SCAP stably expressed in HeLa cells (hamster) (UniProt P97260)
T3 sequence: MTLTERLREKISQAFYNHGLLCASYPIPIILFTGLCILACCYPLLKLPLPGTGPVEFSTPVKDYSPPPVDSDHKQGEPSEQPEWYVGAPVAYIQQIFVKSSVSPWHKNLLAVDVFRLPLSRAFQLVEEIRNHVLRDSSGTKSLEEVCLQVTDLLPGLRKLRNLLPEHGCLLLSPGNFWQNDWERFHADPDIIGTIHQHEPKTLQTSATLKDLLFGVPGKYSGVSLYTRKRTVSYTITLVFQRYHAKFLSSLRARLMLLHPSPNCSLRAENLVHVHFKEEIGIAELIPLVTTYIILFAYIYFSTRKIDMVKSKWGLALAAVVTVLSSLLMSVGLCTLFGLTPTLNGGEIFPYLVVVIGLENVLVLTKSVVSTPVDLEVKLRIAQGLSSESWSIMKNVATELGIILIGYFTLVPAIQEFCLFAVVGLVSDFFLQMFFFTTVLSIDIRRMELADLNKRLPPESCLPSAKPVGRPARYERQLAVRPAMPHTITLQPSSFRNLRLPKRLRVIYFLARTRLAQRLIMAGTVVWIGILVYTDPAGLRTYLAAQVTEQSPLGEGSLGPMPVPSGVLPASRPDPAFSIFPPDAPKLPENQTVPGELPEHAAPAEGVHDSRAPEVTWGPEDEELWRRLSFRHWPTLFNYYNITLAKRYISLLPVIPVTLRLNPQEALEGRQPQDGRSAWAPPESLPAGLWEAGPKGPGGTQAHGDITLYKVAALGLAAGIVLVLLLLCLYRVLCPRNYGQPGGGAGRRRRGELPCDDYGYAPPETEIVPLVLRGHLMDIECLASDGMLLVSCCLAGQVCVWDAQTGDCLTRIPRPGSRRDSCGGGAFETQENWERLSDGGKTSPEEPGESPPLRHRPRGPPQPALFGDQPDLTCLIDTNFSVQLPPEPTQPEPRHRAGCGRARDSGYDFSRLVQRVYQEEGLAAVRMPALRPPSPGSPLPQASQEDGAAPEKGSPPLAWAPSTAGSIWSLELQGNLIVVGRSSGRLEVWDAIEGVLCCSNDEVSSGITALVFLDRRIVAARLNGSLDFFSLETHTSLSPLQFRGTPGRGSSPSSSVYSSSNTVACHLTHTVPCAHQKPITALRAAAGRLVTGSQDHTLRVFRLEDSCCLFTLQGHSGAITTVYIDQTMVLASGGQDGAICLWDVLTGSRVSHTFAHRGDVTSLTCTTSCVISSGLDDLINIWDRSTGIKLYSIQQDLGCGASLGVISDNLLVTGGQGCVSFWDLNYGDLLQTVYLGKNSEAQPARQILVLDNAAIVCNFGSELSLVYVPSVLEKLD

B2: Bap31, endogenous in HEK 293T (protein, UniProt P51572 1-246)
chain: MSLQWTAVATFLYAEVFVVLLLCIPFISPKRWQKIFKSRLVELLVSYGNTFFVVLIVILVLLVIDAVREIRKYDDVTEKVNLQNNPGAMEHFHMKLFRAQRNLYIAGFSLLLSFLLRRLVTLISQQATLLASNEAFKKQAESASEAAKKYMEENDQLKKGAAVDGGKLDVGNAEVKLEEENRSLKADLQKLKDELASTKQKLEKAENQVLAMRKQSEGLTKEYDRLLEEHAKLQAAVDGPMDKKEE
binding (FLAG-SREBP1a): no binding
binding (FLAG-SREBP2): no binding

B3: Bap31, endogenous in HeLa (protein, UniProt P51572 1-246)
chain: B2 chain
binding [1]: no binding

Second part, the binder after the results:

binding (FLAG-SREBP1a): binds
binding (FLAG-SREBP2): binds
B1: GFP-SCAP (protein, UniProt P97260 1-1276)
chain: T3 sequence

binding [1]: binds weakly
B4: Sac1, endogenous in HeLa (protein, UniProt Q9NTJ5 1-587)
chain: MATAAYEQLKLHITPEKFYVEACDDGADDVLTIDRVSTEVTLAVKKDVPPSAVTRPIFGILGTIHLVAGNYLIVITKKIKVGEFFSHVVWKATDFDVLSYKKTMLHLTDIQLQDNKTFLAMLNHVLNVDGFYFSTTYDLTHTLQRLSNTSPEFQEMSLLERADQRFVWNGHLLRELSAQPEVHRFALPVLHGFITMHSCSINGKYFDWILISRRSCFRAGVRYYVRGIDSEGHAANFVETEQIVHYNGSKASFVQTRGSIPVFWSQRPNLKYKPLPQISKVANHMDGFQRHFDSQVIIYGKQVIINLINQKGSEKPLEQTFATMVSSLGSGMMRYIAFDFHKECKNMRWDRLSILLDQVAEMQDELSYFLVDSAGQVVANQEGVFRSNCMDCLDRTNVIQSLLARRSLQAQLQRLGVLHVGQKLEEQDEFEKIYKNAWADNANACAKQYAGTGALKTDFTRTGKRTHLGLIMDGWNSMIRYYKNNFSDGFRQDSIDLFLGNYSVDELESHSPLSVPRDWKFLALPIIMVVAFSMCIICLLMAGDTWTETLAYVLFWGVASIGTFFIILYNGKDFVDAPRLVQKEKID

— article doi:10.1101/679936
